Experimental data: PubChem BioAssay AID1159584 (Peter MacCallum Cancer Centre, 2016)
The deposit covers about 18,000 reagents; this is a part drawn at random. Not all columns of the deposit are shown. The record does not give: the amount of reagent, the time to read-out.

Screen: 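Genes that CDH1-null MCF10A cells selectively depend on to survive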 (primary screen)
System: human MCF10A breast epithelial cells, parental and CDH1-null
Reagents: siRNA against human genes
Measurement: 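Cell viability by CellTiter-Glo ATP luminescence, each line scaled to the mean of mock wells across plates, then CDH1-null over parental ratio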
Scale: CDH1-null / parental viability ratio: higher = CDH1-null cells survive relatively better than parental

{"gene knocked down": "UBE2T", "PubChem SID": "SID152148214", "CDH1-null / parental viability ratio": 1.29}
{"gene knocked down": "PIWIL1", "PubChem SID": "SID135620857", "CDH1-null / parental viability ratio": 0.82}
{"gene knocked down": "EIF4EBP3", "PubChem SID": "SID135623767", "CDH1-null / parental viability ratio": 0.81}
{"gene knocked down": "ARL2", "PubChem SID": "SID152149506", "CDH1-null / parental viability ratio": 0.92}
{"gene knocked down": "PHKG2", "PubChem SID": "SID135620902", "CDH1-null / parental viability ratio": 0.85}
{"gene knocked down": "SCD5", "PubChem SID": "SID135621567", "CDH1-null / parental viability ratio": 1.13}
{"gene knocked down": "PCYOX1L", "PubChem SID": "SID135621568", "CDH1-null / parental viability ratio": 1}
{"gene knocked down": "FOXE1", "PubChem SID": "SID134316179", "CDH1-null / parental viability ratio": 0.9}
{"gene knocked down": "CNKSR3", "PubChem SID": "SID135623543", "CDH1-null / parental viability ratio": 0.9}
{"gene knocked down": "COP1", "PubChem SID": "SID152153548", "CDH1-null / parental viability ratio": 1.02}
{"gene knocked down": "LY6G6F", "PubChem SID": "SID134329824", "CDH1-null / parental viability ratio": 1.12}
{"gene knocked down": "ADSS2", "PubChem SID": "SID134314051", "CDH1-null / parental viability ratio": 1.17}
{"gene knocked down": "ZIC3", "PubChem SID": "SID134316117", "CDH1-null / parental viability ratio": 1.19}
{"gene knocked down": "TYW2", "PubChem SID": "SID152149840", "CDH1-null / parental viability ratio": 1.09}
{"gene knocked down": "UQCRC1", "PubChem SID": "SID134310611", "CDH1-null / parental viability ratio": 1.18}
{"gene knocked down": "FAR1", "PubChem SID": "SID152149487", "CDH1-null / parental viability ratio": 0.76}

Copied from the entries so far, 3 entries:
{"gene knocked down": "LY6G6F", "PubChem SID": "SID134329824", "CDH1-null / parental viability ratio": 1.12}
{"gene knocked down": "ADSS2", "PubChem SID": "SID134314051", "CDH1-null / parental viability ratio": 1.17}
{"gene knocked down": "ZIC3", "PubChem SID": "SID134316117", "CDH1-null / parental viability ratio": 1.19}

The list goes on:
{"gene knocked down": "TTR", "PubChem SID": "SID135622340", "CDH1-null / parental viability ratio": 0.88}
{"gene knocked down": "RAB3GAP2", "PubChem SID": "SID152151411", "CDH1-null / parental viability ratio": 1.07}
{"gene knocked down": "TIPE2", "PubChem SID": "SID135622726", "CDH1-null / parental viability ratio": 1}
{"gene knocked down": "ITGB1BP1", "PubChem SID": "SID152148039", "CDH1-null / parental viability ratio": 0.58}
{"gene knocked down": "SNHG29", "PubChem SID": "SID152150818", "CDH1-null / parental viability ratio": 0.92}
{"gene knocked down": "UBXN8", "PubChem SID": "SID152147978", "CDH1-null / parental viability ratio": 1.35}
{"gene knocked down": "RPL21", "PubChem SID": "SID152146900", "CDH1-null / parental viability ratio": 1}
{"gene knocked down": "ANKRD20A5P", "PubChem SID": "SID135625320", "CDH1-null / parental viability ratio": 1.08}
{"gene knocked down": "LSM14B", "PubChem SID": "SID152146870", "CDH1-null / parental viability ratio": 0.9}
{"gene knocked down": "PSORS1C1", "PubChem SID": "SID134324391", "CDH1-null / parental viability ratio": 1.17}
{"gene knocked down": "ODAD3", "PubChem SID": "SID152155650", "CDH1-null / parental viability ratio": 0.88}
{"gene knocked down": "HSD11B2", "PubChem SID": "SID152149769", "CDH1-null / parental viability ratio": 0.84}
{"gene knocked down": "ANGEL1", "PubChem SID": "SID135622658", "CDH1-null / parental viability ratio": 1}
{"gene knocked down": "COPG2", "PubChem SID": "SID135623890", "CDH1-null / parental viability ratio": 1.16}
{"gene knocked down": "FCN1", "PubChem SID": "SID152149498", "CDH1-null / parental viability ratio": 0.75}
{"gene knocked down": "HBEGF", "PubChem SID": "SID134323401", "CDH1-null / parental viability ratio": 0.99}
{"gene knocked down": "RGMA", "PubChem SID": "SID134318004", "CDH1-null / parental viability ratio": 0.74}
{"gene knocked down": "ZNF324", "PubChem SID": "SID135621280", "CDH1-null / parental viability ratio": 1.52}
{"gene knocked down": "ABCC5", "PubChem SID": "SID135621348", "CDH1-null / parental viability ratio": 0.94}
{"gene knocked down": "ITGBL1", "PubChem SID": "SID134323616", "CDH1-null / parental viability ratio": 1.13}
{"gene knocked down": "TOP2B", "PubChem SID": "SID135620799", "CDH1-null / parental viability ratio": 1}
{"gene knocked down": "GOLT1B", "PubChem SID": "SID152155215", "CDH1-null / parental viability ratio": 0.84}
{"gene knocked down": "NSD2", "PubChem SID": "SID134311890", "CDH1-null / parental viability ratio": 1.01}
{"gene knocked down": "OR5K4", "PubChem SID": "SID134329949", "CDH1-null / parental viability ratio": 0.75}
{"gene knocked down": "OR8H3", "PubChem SID": "SID152156618", "CDH1-null / parental viability ratio": 0.89}
{"gene knocked down": "PRMT8", "PubChem SID": "SID152148918", "CDH1-null / parental viability ratio": 1.37}
{"gene knocked down": "THUMPD3", "PubChem SID": "SID134318157", "CDH1-null / parental viability ratio": 1.1}
{"gene knocked down": "DHRSX", "PubChem SID": "SID134313050", "CDH1-null / parental viability ratio": 0.88}
{"gene knocked down": "IL18", "PubChem SID": "SID134312883", "CDH1-null / parental viability ratio": 1}
